Residue numbers refer to the chain shown, from its start. No constants are given. Whether binding was seen depends on the method and setting. Some results given as binding are weak or reduced against the parent protein; the word gives no strength. Sequences can lack the tags named with a protein.
Legend:
[1] = molecular target: T1, GsSir2 protein (Sir2-APAZ subunit of the GsSir2/Ago system), N-terminal His6-tagged (Geobacter sulfurreducens) (UniProt Q74DF6); experiment: mass photometry
T1 sequence: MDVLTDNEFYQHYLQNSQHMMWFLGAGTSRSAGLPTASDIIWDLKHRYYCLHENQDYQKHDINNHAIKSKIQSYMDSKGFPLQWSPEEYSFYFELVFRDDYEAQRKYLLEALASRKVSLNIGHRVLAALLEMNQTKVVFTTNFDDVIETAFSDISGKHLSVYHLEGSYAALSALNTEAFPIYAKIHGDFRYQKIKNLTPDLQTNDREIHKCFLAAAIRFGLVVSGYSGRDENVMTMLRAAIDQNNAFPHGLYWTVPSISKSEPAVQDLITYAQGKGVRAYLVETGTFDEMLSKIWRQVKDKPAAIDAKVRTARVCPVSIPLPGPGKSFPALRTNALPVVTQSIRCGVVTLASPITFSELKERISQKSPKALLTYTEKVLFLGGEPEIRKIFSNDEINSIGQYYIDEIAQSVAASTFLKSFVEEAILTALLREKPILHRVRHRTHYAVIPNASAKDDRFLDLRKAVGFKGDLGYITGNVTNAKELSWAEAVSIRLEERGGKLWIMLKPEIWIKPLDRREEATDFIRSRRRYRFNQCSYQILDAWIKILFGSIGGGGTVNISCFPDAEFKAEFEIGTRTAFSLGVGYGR

[2] = molecular target: T1, GsSir2 protein (Sir2-APAZ subunit of the GsSir2/Ago system), N-terminal His6-tagged (Geobacter sulfurreducens); experiment: SAXS
[3] = molecular target: T1, GsSir2 protein (Sir2-APAZ subunit of the GsSir2/Ago system), N-terminal His6-tagged (Geobacter sulfurreducens); experiment: SEC
[4] = molecular target: T2, GsSir2(D230A), N-terminal His6-tagged (Geobacter sulfurreducens) (UniProt Q74DF6); experiment: SEC
T2 sequence: T1 sequence with D230A

[5] = molecular target: T1, GsSir2 protein (Sir2-APAZ subunit of the GsSir2/Ago system), N-terminal His6-tagged (Geobacter sulfurreducens); experiment: co-purification on a Ni2+-affinity column
[6] = molecular target: T1, GsSir2 protein (Sir2-APAZ subunit of the GsSir2/Ago system), N-terminal His6-tagged (Geobacter sulfurreducens); experiment: SEC-MALS
[7] = molecular target: T3, GsSir2 protein of the GsSir2/Ago-HSH variant (no tag on Sir2) (Geobacter sulfurreducens) (UniProt Q74DF6); experiment: SEC
T3 sequence: T1 sequence

Row | binding [1] | binding [2] | binding [3] | binding [4] | binding [5] | binding [6] | binding [7] | Substance
1 | binds | binds | binds | binds | binds | binds |  | GsAgo protein (short pAgo of the GsSir2/Ago system) (from UniProt Q74DF5 1-473)
2 |  |  |  |  |  |  | binds | GsAgo protein with a C-terminal His6-StrepII-His6-tag (HSH-tag) (from UniProt Q74DF5 1-473)

From doi:10.1101/2021.12.14.472599
